The source of these data is PMC4877375.

To fix the notation:
B1: SEC28 (protein, UniProt P40509 1-296)
chain: MDYFNIKQNYYTGNFVQCLQEIEKFSKVTDNTLLFYKAKTLLALGQYQSQDPTSKLGKVLDLYVQFLDTKNIEELENLLKDKQNSPYELYLLATAQAILGDLDKSLETCVEGIDNDEAEGTTELLLLAIEVALLNNNVSTASTIFDNYTNAIEDTVSGDNEMILNLAESYIKFATNKETATSNFYYYEELSQTFPTWKTQLGLLNLHLQQRNIAEAQGIVELLLSDYYSVEQKENAVLYKPTFLANQITLALMQGLDTEDLTNQLVKLDHEHAFIKHHQEIDAKFDELVRKYDTSN
B2: TRS31 (protein, UniProt Q03337 1-283)
chain: MSQRIIQPSASDQQFPGKSDGYEYTVGPKQAITSEASTTYIPSRIYSESLLFKRQEASLSAMAFLFQEMISQLHRTCKTAGDFETKLSDYGHNIGIRLLELLNFRASVSPSSLPRASAFLSQNESSSKLSNASNSPGMLANSSTATSASANERLQEKQTESLSNYITKMRRRDLKILDILQFIHGTLWSYLFNHVSDDLVKSSERDNEYMIVDNFPTLTQFIPGENVSCEYFVCGIIKGFLFNAGFPCGVTAHRMPQGGHSQRTVYLIQFDRQVLDREGLRFG
B3: PIK1 (protein, UniProt P39104 1-1066)
chain: MHKASSSKKSFDDTIELKKNEQLLKLINSSEFTLHNCVELLCKHSENIGIHYYLCQKLATFPHSELQFYIPQLVQVLVTMETESMALEDLLLRLRAENPHFALLTFWQLQALLTDLSTDPASYGFQVARRVLNNLQTNLFNTSSGSDKNVKIHENVAPALVLSSMIMSAIAFPQLSEVTKPLVESQGRRQKAFVFKLARSAMKDFTKNMTLKNTLLNKKTSRSKRVSSNRSSTPTSPIDLIDPIKTKEDASFRKSRHSEVKLDFDIVDDIGNQVFEERISSSIKLPKRKPKYLDNSYVHRTYDGKNINRDGSISNTAKALDGNKGDYISPKGRNDENNEIGNNEDETGGETEEDADALNSDHFTSSMPDLHNIQPRTSSASSASLEGTPKLNRTNSQPLSRQAFKNSKKANSSLSQEIDLSQLSTTSKIKMLKANYFRCETQFAIALETISQRLARVPTEARLSALRAELFLLNRDLPAEVDIPTLLPPNKKGKLHKLVTITANEAQVLNSAEKVPYLLLIEYLRDEFDFDPTSETNERLLKKISGNQGGLIFDLNYMNRKENNENRNESTLTSNNTRSSVYDSNSFNNGASRNEGLSSTSRSDSASTAHVRTEVNKEEDLGDMSMVKVRNRTDDEAYRNALVIQSAANVPILPDDSQDRSPELNFGSNLDEVLIENGINSKNIHSQTDALADQMRVSAVMLAQLDKSPQQLSESTKQIRAQIISSMKEVQDKFGYHDLEALHGMAGERKLENDLMTGGIDTSYLGEDWATKKERIRKTSEYGHFENWDLCSVIAKTGDDLRQEAFAYQMIQAMANIWVKEKVDVWVKRMKILITSANTGLVETITNAMSVHSIKKALTKKMIEDAELDDKGGIASLNDHFLRAFGNPNGFKYRRAQDNFASSLAAYSVICYLLQVKDRHNGNIMIDNEGHVSHIDFGFMLSNSPGSVGFEAAPFKLTYEYIELLGGVEGEAFKKFVELTKSSFKALRKYADQIVSMCEIMQKDNMQPCFDAGEQTSVQLRQRFQLDLSEKEVDDFVENFLIGKSLGSIYTRIYDQFQLITQGIYS
B4: Trs65p (protein, UniProt P32893 1-560)
chain: MECFVPLRCDLDGSNIEQLRQSHLSRKFIIFDEQLNLWLWFQGNSQENKRFVLQNMIILINEAQVTRTSTIDDYFTQVENNENLWRLKNDCCSKILFKSNVVMNNGYNNQIKFVFEYKSVDANFNNQDSLQDPQAKYTLDKYSSEEILPSFEPVYSWSSAATKSSKNTNNHLEKNNRATHRVSSKNSEVHEADVSRNPNTFTLKLQYPIFSLLNMRLRNISLKSEHCILSSLDFQTSKASEQLTKKFIYPQEHNSFLKLNFQEISYKLIDGTSQIELDPICPLKVPLTAFSYDSISATFKLVLLPKSTQPHRVKITLAYELELHPNLKLPVRTSWETEVTLKRSMPISSTSSQYSSNNNNTNHSASFNGAANNVNSGGLANLRLGGVSSSRFSLGAASTTSLVNSKLSNVKFKFINSNIKVIKGEKFTMRLQIINSSSSPLDLVVYYNNTINPIPSANNVRNSNGINNCGMNNGTIPNSPLTLENQYQLHNKYRKIAEGIILLSNDYKIPVVPPRETYFADLRFIGIMSGYYGTLSGLKVLDLNTNELIEVGNGASVLIQ
B5: KRE6 (protein, UniProt P32486 1-720)
chain: MPLRNLTETHNFSSTNLDTDGTGDDHDGAPLSSSPSFGQQNDNSTNDNAGLTNPFMGSDEESNARDGESLSSSVHYQPQGSDSSLLHDNSRLDLSQNKGVSDYKGYYSRNNSRAVSTANDNSFLQPPHRAIASSPSLNSNLSKNDILSPPEFDRYPLVGSRVTSMTQLNHHGRSPTSSPGNESSASFSSNPFLGEQDFSPFGGYPASSFPLMIDEKEEDDYLHNPDPEEEARLDRRRFIDDFKYMDKRSASGLAGVLLLFLAAIFIFIVLPALTFTGAIDHESNTEEVTYLTQYQYPQLSAIRTSLVDPDTPDTAKTREAMDGSKWELVFSDEFNAEGRTFYDGDDPYWTAPDVHYDATKDLEWYSPDASTTVNGTLQLRMDAFKNHGLYYRSGMLQSWNKVCFTQGALEISANLPNYGRVSGLWPGLWTMGNLGRPGYLASTQGVWPYSYESCDAGITPNQSSPDGISYLPGQKLSICTCDGEDHPNQGVGRGAPEIDVLEGETDTKIGVGIASQSLQIAPFDIWYMPDYDFIEVYNFTTTTMNTYAGGPFQQAVSAVSTLNVTWYEFGEYGGYFQKYAIEYLNDDDNGYIRWFVGDTPTYTIHAKALHPDGNIGWRRISKEPMSIILNLGISNNWAYIDWQYIFFPVVMSIDYVRIYQPSNAISVTCDPSDYPTYDYIQSHLNAFQNANLTTWEDAGYTFPKNILTGKCTSSKFKLSS
B6: TRS20 (protein, UniProt P38334 1-175)
chain: MPQYFAIIGKKDNPVYEIEFTNAENPQGFPQDLKELNPFILHASLDIVEDLQWQINPTSQLNGNGGNGSNGGGGFLRSRAVNNTDNCYLGKVDHFYGLAITAYISYSGMKFVMIHGNSANSSVVIDDNNMRSFYQEVHELYVKTLMNPFYKITDPIRSPAFDSRVRTLARKHLSK
B7: SLM1 (protein, UniProt P40485 1-686)
chain: MSKNNTMTSAVSDMLSQQQLNLQHLHNLQQHTRSMTSADHANVLQQQQQQQQQQQQQQQQQQQSASFQNGSLTSDINQQSYLNGQPVPSTSNSTFQNNRTLTMNSGGLQGIISNGSPNIDSNTNVTIAVPDPNNNNGKQLQGKNSLTNTSILSRARSSLQRQRLAQQQQQQQDPRSPLVILVPTAAQPTDILAARFSAWRNVIKSVIVYLTEIASIQDEIVRQQLRLSHAVQFPFFSIENQYQPSSQEDKSVQKFFLPLGNGSIQDLPTILNQYHESLASSASKASRELTNDVIPRLEDLRRDLIVKIKEIKSLQSDFKNSCSKELQQTKQAMKQFQESLKDARYSVPKQDPFLTKLALDRQIKKQLQEENFLHEAFDNLETSGAELEKIVVMEIQNSLTIYARLLGQEAQLVFDILISKLDSGFFNVDPQFEWDNFISRDPNFLLPNLPMRTFKEIVYKYQFDPLTYEIKSGFLERRSKFLKSYSKGYYVLTPNFLHEFKTADRKKDLVPVMSLALSECTVTEHSRKNSTSSPNSTGSDAKFVLHAKQNGIIRRGHNWVFKADSYESMMSWFDNLKILTSTSNIQDKYKFITQKLNLNSDGKPKLTNNHTSINKYQLSNANSTMVENDENDDINSNYVGSTVTPKLDNQTNTNTSMSSLPDTNDSELQDQVPNIYIQTPINDFKS
B8: BET5 (protein, UniProt Q03630 1-159)
chain: MGIYSFWIFDRHCNCIFDREWTLASNSASGTINSKQNEEDAKLLYGMIFSLRSITQKLSKGSVKNDIRSISTGKYRVHTYCTASGLWFVLLSDFKQQSYTQVLQYIYSHIYVKYVSNNLLSPYDFAENENEMRGQGTRKITNRNFISVLESFLAPMVNQ
B9: Gcs1p (protein, UniProt P35197 1-352)
chain: MSDWKVDPDTRRRLLQLQKIGANKKCMDCGAPNPQWATPKFGAFICLECAGIHRGLGVHISFVRSITMDQFKPEELLRMEKGGNEPLTEWFKSHNIDLSLPQKVKYDNPVAEDYKEKLTCLCEDRVFEEREHLDFDASKLSATSQTAASATPGVAQSREGTPLENRRSATPANSSNGANFQKEKNEAYFAELGKKNQSRPDHLPPSQGGKYQGFGSTPAKPPQERSAGSSNTLSLENFQADPLGTLSRGWGLFSSAVTKSFEDVNETVIKPHVQQWQSGELSEETKRAAAQFGQKFQETSSYGFQAFSNFTKNFNGNAEDSSTAGNTTHTEYQKIDNNDKKNEQDEDKWDDF

Results are given in words; binding and its absence hold for the method and conditions named. In cells and extracts the contact can be indirect. Here binding means that the protein was enriched with, or labelled near, the bait; the list need not be complete.

This experiment has as its target T1, Trs120p-TAP (yeast (endogenous in the yeast strain)) (UniProt Q04183).
T1 sequence: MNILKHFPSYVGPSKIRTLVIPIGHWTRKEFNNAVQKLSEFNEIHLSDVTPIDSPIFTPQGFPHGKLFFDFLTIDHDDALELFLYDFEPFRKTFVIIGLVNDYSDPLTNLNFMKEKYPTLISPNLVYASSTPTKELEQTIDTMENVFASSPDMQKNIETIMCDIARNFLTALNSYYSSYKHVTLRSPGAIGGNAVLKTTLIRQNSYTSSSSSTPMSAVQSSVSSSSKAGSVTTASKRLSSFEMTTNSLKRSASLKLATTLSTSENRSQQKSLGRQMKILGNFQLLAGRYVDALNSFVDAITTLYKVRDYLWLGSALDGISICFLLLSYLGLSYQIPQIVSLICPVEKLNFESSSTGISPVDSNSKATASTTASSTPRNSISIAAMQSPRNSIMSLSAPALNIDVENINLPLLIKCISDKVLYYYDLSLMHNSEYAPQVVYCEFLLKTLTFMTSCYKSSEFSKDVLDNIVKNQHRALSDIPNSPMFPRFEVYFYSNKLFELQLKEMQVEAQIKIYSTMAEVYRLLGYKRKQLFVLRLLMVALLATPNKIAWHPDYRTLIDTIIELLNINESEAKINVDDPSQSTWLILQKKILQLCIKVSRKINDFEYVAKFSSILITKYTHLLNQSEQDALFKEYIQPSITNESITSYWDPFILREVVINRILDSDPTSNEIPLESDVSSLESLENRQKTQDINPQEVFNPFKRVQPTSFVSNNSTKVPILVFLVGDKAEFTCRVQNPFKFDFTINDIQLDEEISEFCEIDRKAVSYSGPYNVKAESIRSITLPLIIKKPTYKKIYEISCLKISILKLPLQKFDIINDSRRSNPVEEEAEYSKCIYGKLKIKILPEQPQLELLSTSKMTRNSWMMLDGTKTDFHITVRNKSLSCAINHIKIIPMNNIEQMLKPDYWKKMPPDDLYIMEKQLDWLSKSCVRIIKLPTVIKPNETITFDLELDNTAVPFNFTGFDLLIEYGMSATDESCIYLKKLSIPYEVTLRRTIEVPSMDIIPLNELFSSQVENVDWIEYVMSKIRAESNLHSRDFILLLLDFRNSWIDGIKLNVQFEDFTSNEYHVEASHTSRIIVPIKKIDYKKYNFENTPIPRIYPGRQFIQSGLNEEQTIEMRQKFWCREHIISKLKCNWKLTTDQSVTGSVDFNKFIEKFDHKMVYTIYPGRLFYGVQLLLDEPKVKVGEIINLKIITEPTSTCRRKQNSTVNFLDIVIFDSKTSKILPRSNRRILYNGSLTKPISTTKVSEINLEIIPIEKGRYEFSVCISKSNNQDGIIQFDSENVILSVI
The experiment is described as follows: affinity purification with mass spectrometry; Trs120p-TAP purified from yeast lysate (1% CHAPS, 100 mM NaCl) on IgG beads, TEV elution, calmodulin beads, EGTA elution; gel bands or total eluate analysed by MS/MS.
B1: the binding entry is “binds”.

Consider B2, for which the binding entry is “binds”. As for B3, the binding result is reported as “binds”. With B4 the entry was “binds”; with B5, “binds”; with B6, “binds”. Next, B7: “binds”; B8: “binds”; B9: “binds”.
